# Measured values reported in the supplement of paper PMC10735217.
# The other results are listed elsewhere or left out. Repeats in this data set agree poorly, so a single value says little.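 The human kidney-derived cells carry a stably integrated construct of eight TEAD-binding elements driving luciferase, read by luminescence in a drug-repurposing library screen. A compound counts as a hit when its signal is more than five robust Z scores above the plate mean.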
# Tested on: HEK293A TEAD-LUC reporter
# Test: TEAD-luciferase reporter activity (YAP activation), robust Z score vs plate; higher = stronger YAP/TEAD activation
# Settings: 24 h
Compound,TEAD-luciferase reporter activity (compound concentration: 200 nM),TEAD-luciferase reporter activity (compound concentration: 2 uM),TEAD-luciferase reporter activity (compound concentration: 10 uM)
O=C(O)[C@@H](S)[C@@H](S)C(=O)O [succimer],inactive: -1.02,inactive: 2.92,inactive: -0.141
O=C(NC1CCNCC1)[C@@H]1CC[C@@H]2CN1C(=O)N2OS(=O)(=O)O [Relebactam],inactive: -0.38,inactive: 1.96,inactive: 1.76
COc1ccc(CN2CCC(N3CCCC3=O)CC2)cc1,inactive: -1.84,–,inactive: 1.28
CCOP(=O)(OCC)C(=Cc1cc(C(C)(C)C)c(O)c(C(C)(C)C)c1)P(=O)(OCC)OCC,inactive: 0.169,inactive: -0.422,inactive: 0.347
CCn1ncc2c3c(NCc4ccc(OC)c(Cl)c4)nnc(-n4cnc(C(=O)NC)c4)c3cnc21,inactive: -1.76,inactive: -2.37,inactive: -0.49
CNc1nc(C(C)c2ccc(-c3ccccc3)c(F)c2)cs1 (stereo unspecified),inactive: -1.21,inactive: 1.81,inactive: -0.416
CN(C)CCCN1c2ccccc2C(c2ccccc2)=Nc2cccnc21 [Tampramine],inactive: -0.704,inactive: 0.187,inactive: 0.56
COc1ccc(C2CNC(=O)NC2)cc1O[C@H]1C[C@@H]2CC[C@H]1C2 [Atizoram],inactive: -3.24,inactive: 0.469,inactive: -0.333
CCOc1ccc2nc3cc(N)ccc3c(N)c2c1,inactive: -1.61,inactive: -0.637,inactive: -0.088
COc1cc(-n2cnc3cc(-c4ccc(Cl)cc4)sc3c2=O)ccc1N1CC[C@@H](OC(=O)[C@@H](N)C(C)C)C1,inactive: 0.941,inactive: -0.774,inactive: -0.698
Cc1cccc(OCC(O)CNC(C)C)c1 (stereo unspecified),inactive: 0.0218,inactive: -0.881,inactive: 3.09
COc1cc2c(cc1OC)[C@@H]1CN(C)CC[C@@H]1N=C2c1ccc(NC(C)=O)cc1 [Benafentrine dimaleate],inactive: 0.311,inactive: -1.65,inactive: 1.31
C=CC(=O)Nc1ccc2ncnc(Nc3cc(Cl)c(Cl)cc3F)c2c1,inactive: -1.3,inactive: -1.22,inactive: -1.1
CN(C)CC1CCOC1(c1ccccc1)c1ccccc1 (stereo unspecified),inactive: 0.329,inactive: -1.03,inactive: -1.19
Cc1cc2ccccn2c1C(=O)c1ccc(Oc2ccccc2)cc1,inactive: -0.441,inactive: -0.276,inactive: -0.995
C[C@@H]1CC2C3C[C@H](F)C4=CC(=O)C=CC4(C)[C@@]3(F)C(O)CC2(C)[C@@]1(O)C(=O)COC(=O)C(C)(C)C (stereo partly specified),inactive: 0.323,inactive: -0.0129,inactive: -0.347
COC(=O)N[C@H](C(=O)N1CCC[C@H]1C(=O)Nc1ccc([C@@H]2CC[C@@H](c3ccc(NC(=O)[C@@H]4CCCN4C(=O)[C@@H](NC(=O)OC)C(C)C)cc3)N2c2ccc(C(C)(C)C)cc2)cc1)C(C)C [Ombitasvir],inactive: 0.429,inactive: -0.506,inactive: -1.14
N=C(N)NCCCNC(=O)[C@@H]1CCCCN1C(=O)[C@@H](CC1CCCCC1)NCC(=O)O,inactive: 0.771,inactive: -1.42,inactive: -0.708
COC(=O)c1c2n(c3ccccc13)Cc1ccccc1N1CCN(C)CC21 (stereo unspecified),inactive: -2.02,inactive: -0.65,active: 5.6
CNCC=C(c1ccccc1)c1ccccc1,inactive: -0.723,inactive: -1.66,inactive: 0.18
CC(N1CCN(c2ccc(-n3cnn(Cc4ccc(OC(F)(F)F)cc4)c3=O)cc2)CC1)C(O)(Cn1cncn1)c1ccc(F)cc1F (stereo unspecified),inactive: 0.216,inactive: 0.292,inactive: 1.75
C[S+](CC[C@H](N)C(=O)[O-])C[C@H]1O[C@@H](n2cnc3c(N)ncnc32)[C@H](O)[C@@H]1O (stereo partly specified) [Ademetionine],inactive: -0.983,inactive: -0.731,inactive: 4.71
O=C(CCCN1CCC(C(=O)c2ccc(F)cc2)CC1)c1ccc(F)cc1,inactive: 3.63,inactive: -0.191,inactive: -0.834
NCC(=O)N1Cc2ccccc2CC12CCCN(C(=O)c1ccccc1)C2 (stereo unspecified),inactive: -1.73,–,inactive: -1.25
CC(C)(O)c1nc2ccccc2cc1N,inactive: 2.51,inactive: -0.364,inactive: 2.27
Oc1ccc(CC2NCCc3cc(O)c(O)cc32)cc1 (stereo unspecified) [Norcoclaurine],inactive: -0.552,inactive: -0.327,inactive: 2.3

# Looked up above:
# CNc1nc(C(C)c2ccc(-c3ccccc3)c(F)c2)cs1 (stereo unspecified) | TEAD-luciferase reporter activity (compound concentration: 2 uM): inactive: 1.81
# CC(C)(O)c1nc2ccccc2cc1N | TEAD-luciferase reporter activity (compound concentration: 2 uM): inactive: -0.364
